Source: PMC10800070
These are yes or no findings as the source states them, for the method shown. Binding seen in cells or lysates may run through a third protein. Binding can be weak; no strength is given.

Molecular target: T1, Rasal1 (mouse (endogenous in mouse hippocampus)) (UniProt Q9Z268)
T1 sequence: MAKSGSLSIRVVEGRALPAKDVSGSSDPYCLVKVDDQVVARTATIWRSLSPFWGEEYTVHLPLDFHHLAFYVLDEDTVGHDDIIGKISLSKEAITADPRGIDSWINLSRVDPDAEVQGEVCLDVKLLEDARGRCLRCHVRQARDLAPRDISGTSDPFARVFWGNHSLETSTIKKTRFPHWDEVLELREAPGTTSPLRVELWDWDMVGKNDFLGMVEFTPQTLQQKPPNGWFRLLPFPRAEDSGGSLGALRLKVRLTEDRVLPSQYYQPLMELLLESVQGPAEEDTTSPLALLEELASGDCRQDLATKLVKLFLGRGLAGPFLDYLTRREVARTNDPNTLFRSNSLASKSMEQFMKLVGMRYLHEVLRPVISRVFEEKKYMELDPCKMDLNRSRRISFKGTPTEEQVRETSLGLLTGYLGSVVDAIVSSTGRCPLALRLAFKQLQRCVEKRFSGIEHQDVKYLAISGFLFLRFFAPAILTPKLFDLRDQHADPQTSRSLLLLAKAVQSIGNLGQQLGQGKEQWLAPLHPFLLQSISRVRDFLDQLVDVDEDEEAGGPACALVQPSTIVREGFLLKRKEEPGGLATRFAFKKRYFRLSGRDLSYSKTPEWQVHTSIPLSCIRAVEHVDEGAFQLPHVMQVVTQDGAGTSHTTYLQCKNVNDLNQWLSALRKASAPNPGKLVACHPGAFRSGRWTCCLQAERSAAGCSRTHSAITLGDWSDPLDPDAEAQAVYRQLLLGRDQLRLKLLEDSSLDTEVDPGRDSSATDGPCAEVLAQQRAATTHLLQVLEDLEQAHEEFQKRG
Assay: co-IP; hippocampal protein (300 μg) incubated with Protein A/G Plus-Agarose beads pretreated with Rasal1 antibody (GenScript) at 4 °C; washed five times with RIPA buffer; Western blot

binding | Substance
binds | protein kinase C (PKC) (mouse (endogenous in mouse brain tissue)) (enzyme)
binds | β-tubulin (mouse (endogenous in mouse brain tissue))
